Test results from PubChem BioAssay AID2551 (National Center for Advancing Translational Sciences (NCATS), 2010).
The campaign covered roughly 310,000 compounds. About 17,000 (5.5%) were called active. Inconclusive results, whose numbers are uncertain, are shown with a selection of clear calls. The call rests on the fitted dose curve; in most records, active means well fitted inhibition curve with a large enough effect; inconclusive means small, poorly fitted or top-dose-only effect, or effect the other way; inactive means no such curve, though single readings can be large or run the other way. Where the call is inconclusive, the potency comes from a doubtful curve fit.

Amino acid sequences for entries named in this document (tags omitted). A change or cut given only in a name is not applied to a line headed by its entry.
UniProt P51450: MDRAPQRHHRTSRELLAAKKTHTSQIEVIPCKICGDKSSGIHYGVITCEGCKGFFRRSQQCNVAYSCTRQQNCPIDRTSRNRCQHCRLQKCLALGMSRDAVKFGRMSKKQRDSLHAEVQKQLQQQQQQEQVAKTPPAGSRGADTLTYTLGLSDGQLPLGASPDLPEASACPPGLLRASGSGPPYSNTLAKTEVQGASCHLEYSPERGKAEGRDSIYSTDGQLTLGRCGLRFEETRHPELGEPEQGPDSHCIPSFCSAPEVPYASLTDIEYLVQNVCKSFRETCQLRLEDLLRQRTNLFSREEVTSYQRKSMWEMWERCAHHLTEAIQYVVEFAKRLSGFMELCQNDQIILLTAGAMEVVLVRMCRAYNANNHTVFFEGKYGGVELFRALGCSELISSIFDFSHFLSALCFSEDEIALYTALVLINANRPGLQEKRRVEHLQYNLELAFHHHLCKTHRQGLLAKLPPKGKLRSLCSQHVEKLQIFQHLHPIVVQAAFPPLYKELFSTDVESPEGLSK

The compounds below were run against Nuclear receptor ROR-gamma (Mus musculus) (UniProt P51450) (assay: qHTS for inhibitors of ROR gamma transcriptional activity). Conditions: Drosophila S2 Gal4-RORgamma UAS-luciferase reporter, 20 h; series mostly up to 53.6 µM.
How it was run: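 Luciferase reporter read in Schneider cells carrying Gal4-RORγ (mouse) and UAS-Photinus luciferase; cells given compound 1 h before 700 uM copper sulfate induction, then incubated 20 h at ambient temperature.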
Further: nearly all actives have a fitted effect of over 60% in size.
Potency means the concentration at half of the fitted maximal effect.

Compound | Potency
COc1ccccc1NC(=S)NC(=O)C1CC1 | active: 12.6 µM
CCOc1ccc(C2CC(c3ccc(F)cc3)n3ncnc3N2)cc1 (configuration not stated) | inconclusive: 22.4 µM [inhibitor, single point]
Cc1cccc(N2C(=O)/C(=C/c3cccnc3)SC2=S)c1 | inconclusive: 14.1 µM [inhibitor, single point]
CCc1ccc(S(=O)(=O)/N=C2\C=CC(=O)c3ccccc32)cc1 | inconclusive: 11.2 µM [inhibitor, partial curve]
COc1ccc(CC(=O)N2CCN(c3ccccc3F)CC2)cc1OC | inconclusive: 14.1 µM [activator, partial curve]
CCN1CCN(CC(=O)N2CCCC(C(=O)c3ccc(Oc4ccccc4)cc3)C2)CC1 (configuration not stated) | active: 7.94 µM
CCC(OC(=O)C(NC(=O)c1ccccc1)c1ccccc1)C(=O)Nc1cc(C)on1 (configuration not stated) | inactive
O=C(/C=C/c1ccc2ccccc2n1)c1cc(Br)ccc1O | inactive
CCOc1ccc(C(=O)NC(=S)Nc2ccc(NC(=O)C(C)C)cc2)cc1[N+](=O)[O-] | inconclusive: 14.1 µM [inhibitor, single point]
CCOC(=O)C1=C(C)Nc2nc(=S)[nH]n2C1c1ccc(Cl)cc1 (configuration not stated) | active: 10 µM
O=C1C2CCCN2C(=O)N1CCCN1CCN(c2cccc(Br)c2)CC1 (configuration not stated) | inactive
O=C(O)CS(=O)(=O)c1ccc(C(F)(F)F)cn1 | inactive
CCOC(=O)C1=C(C)NC(SCC(=O)Nc2nc(C)cs2)=C(C#N)C1c1cccs1 (configuration not stated) | inactive
Cc1cc(C)c2c3c(sc2n1)C(=O)N(c1ccccc1)CC(=O)N3 | inactive
CCOC(=O)NC(=O)CSc1nc(-c2ccc(C)c(C)c2)cn1-c1ccccc1 | inconclusive: 14.1 µM [inhibitor, single point]
O=C(Nc1ccc(N2CCOCC2)cc1)c1cc2c(s1)CCCC2 | inconclusive: 1.78 µM [activator, full curve, poor fit]
CCn1ccnc1CN1CCc2c([nH]c3ccccc23)C1C(C)(C)C (configuration not stated) | active: 4.47 µM
CCN1CCN(c2cc(C)c3cc(NC(=S)N4CC(C)CC(C)C4)ccc3n2)CC1 (configuration not stated) | inconclusive: 35.5 µM [inhibitor, single point]
COc1ccc(OC)c2c(C)cc(C)nc12 | active: 12.6 µM
COc1cccc(Nc2nc3ccccc3nc2NS(=O)(=O)c2ccc(NC(C)=O)cc2)c1 | inconclusive: 10 µM [activator, single point]
Oc1ccccc1/C=N/n1c(COc2ccccc2)n[nH]c1=S | active: 11.2 µM
CCc1cc2c(-n3nc(C)cc3C)ncnc2s1 | inconclusive: 20 µM [activator, single point]
COc1ccccc1N1CCN(C(=O)CSc2nc3ncnc(N)c3[nH]2)CC1 | inactive
CCOC(=O)C1CCN(C(=O)c2ccc3nc(-c4ccc(OC)cc4)c(-c4ccc(OC)cc4)nc3c2)CC1 | inactive

Compound | Potency
COc1nc(Nc2ccc([N+](=O)[O-])cc2)nc(NC2CCCCC2)n1 | inactive
CCNC(=O)CN(c1ccc(F)cc1)S(=O)(=O)c1ccc2c(c1)OCCO2 | inactive
CCCNC(=O)OC[C@H]1O[C@H](CCO/N=C/[C@@H](OC)[C@H](C)/C=C/CC(=O)OC)C=C[C@@H]1Oc1ccc(OC)cc1 | inconclusive: 35.5 µM [activator, single point]
O=C(NCc1ccccc1)c1cccc(COc2cc(Cl)ccc2Cl)c1 | inconclusive: 3.16 µM [activator, full curve]
Nc1c(-c2ccc(Cl)cc2)cnn1-c1cccc(C(F)(F)F)c1 | inactive
NC(=O)c1ccc(NCC2COc3ccccc3O2)c([N+](=O)[O-])c1 (configuration not stated) | inconclusive: 12.6 µM [inhibitor, single point]
Nc1c2ccccc2nc2c(O)cccc12 | inactive
N/C(=N\c1nc2c(c(=O)[nH]1)CCCC2)Nc1ccccc1Sc1ccccc1 | inconclusive: 35.5 µM [inhibitor, single point]
CC(C)c1nc(N2CCOCC2)c(C#N)c2c1CCCC2 | inconclusive: 35.5 µM [inhibitor, single point]
CCC(C)Nc1nc2c(c(=O)n(C)c(=O)n2C)n1Cc1cccc(C)c1 (configuration not stated) | inactive
CN1CC(=O)NC1=NC(=O)C12CC3CC(CC(C3)C1)C2 | active: 2.24 µM
CC(C)(C)c1ccc(OCC(=O)Nc2ccncc2)c(Br)c1 | inconclusive: 17.8 µM [activator, single point]
CC(=O)Nc1ccc(-c2csc(N/N=C\c3ccncc3)n2)cc1 | inactive
CC(=O)O[C@@H]1C(=O)[C@@]2(C)[C@H](O)C[C@H]3OC[C@]3(OC(C)=O)[C@@H]2[C@H](OC(=O)c2ccccc2)[C@@]2(O)C[C@H](OC(=O)[C@@H](O)[C@@H](NC(=O)c3ccccc3)c3ccccc3)C(C)=C1C2(C)C (stereo in doubt) | inconclusive: 5.01 µM [activator, full curve, poor fit]
Cc1nc(Nc2ccccc2)sc1C(=O)Nc1ccccc1 | inconclusive: 12.6 µM [activator, partial curve]
CC/C(C)=N/Nc1nc2c(c(=O)[nH]c(=O)n2C)n1Cc1ccccc1 | inconclusive: 11.2 µM [inhibitor, partial curve]
CC1CN(C(=O)CCNC(=O)c2ccc(Cl)cc2)CC(C)O1 (configuration not stated) | inactive
O=C(c1cc(-c2ccccn2)nc2c(Cl)cccc12)N1CCN(C(=O)C2CCCO2)CC1 (configuration not stated) | inactive
CCOC(=O)c1ccc(N2CCN(C(C)=O)CC2)c(NC(=O)c2cccnc2)c1 | inconclusive: 0.562 µM [activator, single point]
COc1ccc(S(=O)(=O)N(C)c2ccc(C(=O)N3CCOCC3)cc2)cc1 | inactive
COc1cc(-c2noc(C)c2/C=C/c2cccc([N+](=O)[O-])c2)cc(OC)c1OC | inconclusive: 10 µM [inhibitor, partial curve]
Cc1nc(NC(=O)/C=C/c2ccc(C(C)(C)C)cc2)sc1C(=O)N(C)C | inconclusive: 2.51 µM [activator, partial curve]
Cc1cc(C)nc(Sc2c(C)n[nH]c2C)n1 | inconclusive: 20 µM [inhibitor, single point]
NNC(=O)c1cc(C23CC4CC(CC(C4)C2)C3)nc2ccccc12 | inconclusive: 20 µM [inhibitor, single point]

Random excerpt: five records from the list, in no set order.
Compound | Potency
CCN1CCN(c2cc(C)c3cc(NC(=S)N4CC(C)CC(C)C4)ccc3n2)CC1 (configuration not stated) | inconclusive: 35.5 µM [inhibitor, single point]
Cc1nc(Nc2ccccc2)sc1C(=O)Nc1ccccc1 | inconclusive: 12.6 µM [activator, partial curve]
CCOC(=O)C1=C(C)Nc2nc(=S)[nH]n2C1c1ccc(Cl)cc1 (configuration not stated) | active: 10 µM
O=C(/C=C/c1ccc2ccccc2n1)c1cc(Br)ccc1O | inactive
CCOC(=O)C1CCN(C(=O)c2ccc3nc(-c4ccc(OC)cc4)c(-c4ccc(OC)cc4)nc3c2)CC1 | inactive

(cont.)

Compound | Potency
CCN1C(=O)C(CC(=O)Nc2cccc(C(C)=O)c2)S/C1=N\c1ccccn1 (configuration not stated) | inconclusive: 14.1 µM [activator, single point]
N=C1/C(=C\c2ccc(-c3cccc(C(=O)O)c3)o2)C(=O)N=C2SC=C(c3ccccc3)N12 | inactive
COc1cccc(/C=N/Nc2nc(Nc3ccccc3)nc(-n3nc(C)cc3C)n2)c1O | active: 1.12 µM
CN(C)S(=O)(=O)c1cccc(NC(=O)c2ccc(Sc3nncn3C)c([N+](=O)[O-])c2)c1 | inconclusive: 1.78 µM [activator, full curve, poor fit]
O=c1cc(CSc2ccccc2)[nH]c(=S)[nH]1 | inconclusive: 2 µM [inhibitor, partial curve]
Cc1ccc(OCC(=O)Nc2cccc(-c3nnc(-c4ccccc4)o3)c2)cc1 | inconclusive: 0.224 µM [activator, full curve]
Cc1cc(N2CCN(C)CC2)nc2ccc(NC(=S)N3CCN(c4ccc(Cl)cc4)CC3)cc12 | inconclusive: 35.5 µM [inhibitor, single point]
CC(=O)Nc1ccc(S(=O)(=O)NC(CC(=O)N(C)Cc2ccccc2)C(C)C)cc1 (configuration not stated) | inactive
COCCCN1CCc2[nH]c(=S)[nH]c(=O)c2C1 | inactive
CC(C)CNC(=O)c1ccc(NC(=O)c2cccs2)cc1 | inconclusive: 15.8 µM [activator, partial curve]
CCOc1ccc(-n2c(-c3ccc(OC)cc3)c[n+]3c2CCCCC3)cc1 | active: 11.2 µM
Cc1ccc(C)c(S(=O)(=O)N2CCC(c3nc4c(nnn4Cc4ccc(F)cc4)c(=O)[nH]3)CC2)c1 | inconclusive: 11.2 µM [activator, partial curve]
CC(=O)N1c2ccc(S(=O)(=O)N3CCC(C(=O)NC(C)c4ccccc4)CC3)cc2CC1C (configuration not stated) | inconclusive: 0.631 µM [inhibitor, full curve]
Cc1ccccc1OCC(=O)N/N=C/c1ccc(N2CCOCC2)o1 | active: 14.1 µM
Cc1ccc2nc3c(cc2c1)c(NC(=O)c1ccccn1)nn3CC(C)C | active: 1.78 µM
Cc1ccc2nc(C)/c(=N\O)c(C)nc2c1 | active: 11.2 µM
Cc1ccc(S(=O)(=O)NCc2ccc(N3CCN(C(=O)OC(C)(C)C)CC3)cc2)cc1 | inconclusive: 7.94 µM [activator, partial curve, poor fit]
Cc1ccc(-c2noc(-c3ccoc3C)n2)cc1 | inactive
O=c1c(-c2ccccc2)nc2cnc(N3CCNCC3)nc2n1Cc1cccs1 | inactive
CC(C)Nc1nc(Cl)nc(Nc2ccccc2)n1 | inconclusive: 11.2 µM [activator, partial curve, poor fit]
CC1=NN(c2ccc(Cl)c(C(=O)O)c2)C(=O)/C1=C\c1ccc(-c2ccc(C(=O)O)cc2)o1 | inactive
O=C(Oc1cccc2cccnc12)c1cccs1 | active: 1.58 µM
Cc1csc(NC(=O)c2ccc3c(c2)OCO3)n1 | inconclusive: 7.94 µM [inhibitor, partial curve, poor fit]
O=C(CCNc1ccc(F)c(Cl)c1)c1ccco1 | inconclusive: 17.8 µM [inhibitor, single point]
